No constants are given. Whether binding was seen depends on the method and setting. Binding seen in cells or lysates may run through a third protein. Binding calls can cover weak binding; strength is not graded here. Tags and fused reporters may be left off the sequences shown.

The target of this experiment is HA-Nkx2-5 deletion mutant lacking the homeodomain (HD). The experiment can be described thus: co-IP; HA-Nkx2-5, Flag-Xrn2 and their deletion mutants cotransfected into C3H10T1/2 cells; immunoprecipitated from nuclear extracts with M2 (Flag) or HA antibody; Western blotting. A general note: Immunoblotting shows a protein as a band on a membrane.

B1: Flag-Xrn2 (enzyme, UniProt Q9DBR1 1-951)
chain: MGVPAFFRWLSRKYPSIIVNCVEEKPKECNGVKIPVDASKPNPNDVEFDNLYLDMNGIIHPCTHPEDKPAPKNEDEMMVAIFEYIDRLFNIVRPRRLLYMAIDGVAPRAKMNQQRSRRFRASKEGMEAAVEKQRVREEILAKGGFLPPEEIKERFDSNCITPGTEFMDNLAKCLRYYIADRLNNDPGWKNLTVILSDASAPGEGEHKIMDYIRRQRAQPNHDPNTHHCLCGADADLIMLGLATHEPNFTIIREEFKPNKPKPCALCNQFGHEVKDCEGLPREKKGKHDELADSLPCAEGEFIFLRLNVLREYLERELTMASLPFPFDVERSIDDWVFMCFFVGNDFLPHLPSLEIREGAIDRLVNIYKNVVHKTGGYLTESGYVNLQRVQMIMLAVGEVEDSIFKKRKDDEDSFRRRQKEKRKRMKRDQPAFTPSGILTPHALGSRNSPGCQVASNPRQAAYEMRMQRNSSPSISPNTSFASDGSPSPLGGIKRKAEDSDSEPEPEDNVRLWEAGWKQRYYKNKFDVDAADEKFRRKVVQSYVEGLCWVLRYYYQGCASWKWYYPFHYAPFASDFEGIADMSSEFEKGTKPFKPLEQLMGVFPAASGNFLPPTWRKLMSDPDSSIIDFYPEDFAIDLNGKKYAWQGVALLPFVDERRLRAALEEVYPDLTPEENRRNSLGGDVLFVGKLHPLRDFILELYQTGSTEPVDVPPELCHGIQGTFSLDEEAILPDQTVCSPVPMLRDLTQNTAVSINFKDPQFAEDYVFKAAMLPGARKPATVLKPGDWEKSSNGRQWKPQLGFNRDRRPVHLDQAAFRTLGHVTPRGSGTSVYTNTALPPANYQGNNYRPLLRGQAQIPKLMSNMRPQDSWRGPPPLFQQHRFERSVGAEPLLPWNRMIQNQNAAFQPNQYQMLGGPGGYPPRRDDHRGGRQGYPREGRKYPLPPPSGRYSWN
For the molecule B1, the binding result is listed as “binds”.

(Values after publication PMC4982761.)
